Data source: PubChem BioAssay AID686938 (Drosophila RNAi Screening Center, 2013)

Test: 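Fly genes required for calcium entry once internal stores are emptied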 (primary screen)
Cell system: Drosophila S2R+ cells
Knock-down reagent: long dsRNA against Drosophila genes, about 0.25 µg dsRNA per well, roughly 10,000 cells
Timing: 5 days of knock-down before the calcium assay
Challenge: thapsigargin (SERCA pump blocker) to empty calcium stores; entry signal taken 4 min after adding it
Measurement: 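Per-well fluo-4 fluorescence in two replicates, unnormalised, measured in resting cells and 4 min after store depletion by the SERCA blocker thapsigargin; ratio of the two present in few wells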
Reading the numbers: calcium entry signal: higher = stronger calcium signal after store depletion; entry to resting ratio: higher = more calcium entry relative to resting level; resting calcium signal: higher = higher resting calcium signal
Rule for the call: 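Hit if the duplicate-averaged plate z-score for entry over resting signal is under −3; wells with weak total dye signal (Fmax z < −2) or more than 5 off-targets removed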
Calls: active = strongly reduced calcium entry; inactive = no strong reduction
In all, the deposit lists about 23,000 reagents; shown is an unselected part of those with a known target gene and a result. Over the whole deposit, 75 (0.33%) were called active. 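Raw plate signals without normalisation; calls rest on plate z-scores that were not deposited; ratio present for only 364 wells.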 A number with no mark means an inactive call. The numbers tell different reagents against one gene apart. Not stated in the record: the dose of the treatment.

predicted target	reagent	calcium entry signal, replicate 1 (fluorescence units)	calcium entry signal, replicate 2 (fluorescence units)	entry to resting ratio	resting calcium signal, replicate 1 (fluorescence units)	resting calcium signal, replicate 2 (fluorescence units)
alphaSnap (alpha Soluble NSF attachment protein)	1	3.31e7	1.99e7		3.49e7	1.39e7
CG11327	1	2.75e7	2.64e7		1.38e7	1.33e7
Gr22e (Gustatory receptor 22e)	1	3.85e7	3.10e7		1.82e7	1.59e7
CG34165	1	2.41e7	1.76e7		1.48e7	1.14e7
TfIIA-S-2	1	4.18e7	6.73e7	2.1	2.00e7	2.51e7
CG13724	1	2.76e7	5.19e7		1.47e7	2.05e7
Hk (Hyperkinetic)	1	2.23e7	2.81e7		1.38e7	1.57e7
Hk (Hyperkinetic)	2	3.62e7	3.69e7		1.87e7	2.04e7
Hk (Hyperkinetic)	3	5.06e7	5.00e7		2.35e7	2.40e7
Hk (Hyperkinetic)	4	4.52e7	3.77e7		2.31e7	2.04e7
CSN7 (COP9 signalosome subunit 7)	1	3.15e7	2.85e7		1.54e7	1.62e7
CSN7 (COP9 signalosome subunit 7)	2	2.66e7	4.04e7		1.49e7	1.57e7
Aptx (aprataxin)	1	3.54e7	3.83e7		4.37e7	1.59e7
AANATL4 (Arylalkylamine N-acetyltransferase-like 4)	1	4.28e7	4.48e7		1.91e7	2.09e7
CG14687	1	3.26e7	2.69e7		1.76e7	1.48e7
CycB (Cyclin B)	1	3.40e7			1.81e7	
Ugt37A3 (UDP-glycosyltransferase family 37 member A3)	1	4.35e7	2.85e7		2.09e7	1.53e7
CG18420	1	3.31e7	2.17e7		1.58e7	9.93e6
Gyc89Db (Guanylyl cyclase at 89Db)	1	5.35e7	2.55e7		2.25e7	1.16e7
CG2278	1	3.26e7	3.81e7		1.79e7	1.84e7
inaC (inactivation no afterpotential C)	1	3.69e7	4.45e7		1.70e7	1.97e7
sktl (skittles)	1	4.30e7			1.90e7	
Unr (Upstream of N-ras)	1	3.68e7	3.25e7		2.48e7	1.57e7
Unr (Upstream of N-ras)	2	4.23e7	3.17e7		1.96e7	1.42e7
CG15890	1	3.20e7	3.45e7		1.64e7	1.74e7
CR31032 (pseudo)	1	3.13e7	3.17e7		1.93e7	1.59e7
CG7849	1	3.68e7	4.99e7		1.93e7	2.38e7
a (arc)	1	4.53e7	6.00e7		2.29e7	2.71e7
a (arc)	2	4.95e7	5.91e7		2.14e7	2.34e7
Osi6 (Osiris 6)	1	4.16e7	3.47e7		2.02e7	1.68e7
Glys (Glycogen synthase)	1	3.38e7	5.03e7		1.58e7	1.92e7
SPR (Sex peptide receptor)	1	2.10e7	2.47e7		1.07e7	1.26e7
SPR (Sex peptide receptor)	2	2.33e7	2.04e7		1.10e7	9.31e6
SPR (Sex peptide receptor)	3	2.32e7	3.57e7		1.29e7	1.69e7
SPR (Sex peptide receptor)	4	3.97e7	3.63e7		2.38e7	1.70e7
Rph (Rabphilin)	1	4.25e7	5.09e7		1.98e7	2.52e7
CG5001	1	3.66e7	4.95e7		1.81e7	2.21e7
CG11865	1	5.11e7	3.16e7		2.15e7	1.53e7
CG2070	1	3.41e7	3.97e7		1.74e7	1.72e7
Tmep (Transmembrane endosomal protein)	1	2.85e7	2.73e7		1.36e7	1.54e7
CG12986	1	2.63e7	3.28e7		1.38e7	1.44e7
CG14763	1	3.08e7	2.83e7		1.38e7	1.32e7
LanA (Laminin A)	1	4.27e7	3.32e7		2.75e7	1.47e7
CG3294	1	3.26e7			1.84e7	
CG42404	1	3.47e7	3.93e7		1.78e7	6.30e7
CG42258	1	4.50e7	3.11e7		2.10e7	1.41e7
CG42258	2	4.92e7	4.54e7		2.22e7	2.26e7
CG42258	3	5.29e7	3.09e7		2.43e7	1.21e7
Eaat2 (Excitatory amino acid transporter 2)	1	2.51e7	3.32e7		1.39e7	1.52e7
Eaat2 (Excitatory amino acid transporter 2)	2	3.66e7			2.04e7	
CG13247	1	2.83e7	4.47e7		1.23e7	1.99e7
CG9701	1	2.27e7	3.40e7		1.14e7	2.21e7
CG3594	1	3.77e7			2.03e7	
CG3594	2	3.03e7	4.30e7		1.63e7	2.41e7
aft (adrift)	1	3.33e7	3.69e7		1.57e7	1.68e7
Ctr1C (Copper transporter 1C)	1	3.70e7	6.37e7		2.00e7	2.84e7
Cyp313a2 (Cytochrome P450 313a2)	1	3.52e7	2.85e7		1.70e7	1.45e7
CatB (Catalase B)	1	4.58e7			2.04e7	

Records above whose gene name starts with T or t (2):
predicted target	reagent	calcium entry signal, replicate 1 (fluorescence units)	calcium entry signal, replicate 2 (fluorescence units)	entry to resting ratio	resting calcium signal, replicate 1 (fluorescence units)	resting calcium signal, replicate 2 (fluorescence units)
TfIIA-S-2	1	4.18e7	6.73e7	2.1	2.00e7	2.51e7
Tmep (Transmembrane endosomal protein)	1	2.85e7	2.73e7		1.36e7	1.54e7
